From the supplement of paper PMC12889115 come the findings set out here.

The subject of this test is Salmonella enterica serovar Typhimurium SL1344. Description: bacterial growth OD600 after 18 h with compound and polymyxin B; higher = more bacterial growth (less inhibition). The following applies: 50 µM, Mueller-Hinton broth.

Some of the results follow. These are raw signals, not scaled to a control.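 In the initial screen, polymyxin B was used at a concentration that permeabilizes Salmonella's outer membrane but not its inner membrane. Maximum growth was set by DMSO wells with or without polymyxin B. Since plates varied, data were ranked per plate, and compounds giving the lowest OD600 advanced as hits.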

With `CC(c1nccs1)N(C)Cc1cn(Cc2ccccc2)nc1-c1ccc2c(c1)OCO2` (stereo not given), for the setting “polymyxin B 1 µg/mL”, the “bacterial growth OD600” value came out at 0.398.
With `O=C(CCC1CCCN(Cc2ccccc2OC(F)F)C1)N1CCOCC1` (stereo not given), the “bacterial growth OD600” value (polymyxin B 1 µg/mL) worked out at 0.973.
For the compound `O=C(NC1CCCCC1)C1CCCN(C2CCN(C(=O)C3CC3)CC2)C1` (stereo not given), the “bacterial growth OD600” value (polymyxin B 0.75 µg/mL) amounted to 0.849.
Turning to `COc1ccccc1CCN1CCC(CN(C)C(=O)Cc2cccs2)CC1`, the “bacterial growth OD600” value (polymyxin B 1 µg/mL) was 0.943.
As for `CCC(CC)CN1CCC2(CC1)c1ccccc1[C@@H](NC(=O)Cc1cccs1)[C@@H]2OC`, under “polymyxin B 0.75 µg/mL”, the “bacterial growth OD600” value turned out to be 0.764.
Still for that read-out and setting: under `O=C1O[C@@H]2CN(S(=O)(=O)N3CCCCC3)C[C@@H]2N1CCc1ccccn1` stands 0.804.
As to `CCOC(=O)C1(CCOc2ccccc2)CCCN(C(=O)/C=C/c2cnn(C)c2)C1` (stereo not given), under “polymyxin B 1 µg/mL”, the “bacterial growth OD600” value was determined as 0.738.
In the case of `OCCNc1ccc(-c2nc(-c3cccc(Cl)c3)no2)cn1`, for the setting “polymyxin B 0.75 µg/mL”, the “bacterial growth OD600” value is 0.296.
Same read-out and setting: next, `Cc1cc(C)cc(N2CCN(C(=O)Cn3cc(NC(=O)CCC(=O)c4ccccc4)cn3)CC2=O)c1`: 0.837.
For `O=C(NCC1CCCN(C(=O)c2cscn2)C1)c1ccc(-c2ccccc2)cc1` (stereo not given), under “polymyxin B 1 µg/mL”, the “bacterial growth OD600” value came to 0.824.
The same measure, in the same setting: next, `Cc1ccccc1C(=O)Nc1ccnn1C1CCN(C(=O)CCn2ccnc2C)CC1`: 0.795.
The same measure, in the same setting: next, `CCOC(=O)C1(Cc2ccc(F)cc2)CCCN(C(=O)CN2CCCCC2=O)C1` (stereo not given): 0.883.
On to `CCN(Cc1cc[nH]n1)CC1CCCN(CCc2cccc(OC)c2)C1` (stereo not given), for which, where the note is “polymyxin B 0.75 µg/mL”, the “bacterial growth OD600” value is 0.809.
Same read-out and setting: next, `CC(c1ccccc1)c1cc(C(=O)NCc2ccccc2Cl)on1` (stereo not given): 0.002.
As to `COCc1ccc(C(=O)N2CCCC(C(=O)c3ccc4ccccc4c3)C2)s1` (stereo not given), where the note is “polymyxin B 1 µg/mL”, the “bacterial growth OD600” value was found to be 0.01.
The same measure, in the same setting: under `COc1cc(C(=O)NCCCSC)ccc1OC1CCN(C(C)=O)CC1` stands 0.871; under `Cc1cc(CN(C)C(=O)CC(c2cccc(O)c2)c2ccccc2Cl)on1` (stereo not given), 0.656.
With `CN1CCC(N(C)C(=O)CCC2CCCN(Cc3cccc(C(F)(F)F)c3)C2)CC1` (stereo not given), the “bacterial growth OD600” value (polymyxin B 1 µg/mL) is 1.04.
As to `COc1cccc(CC(=O)NCC2Cc3cc(-c4ccnc(SC)n4)cc(Cl)c3O2)c1` (stereo not given), the “bacterial growth OD600” value (polymyxin B 0.75 µg/mL) is 0.74.
Consider `CC(=O)c1ccccc1-c1ccc2c(c1)CC(CNC(=O)Cc1cccc(F)c1)O2` (stereo not given), for which, where the note is “polymyxin B 0.75 µg/mL”, the “bacterial growth OD600” value came to 0.793.
